According to the supplement of paper PMC9015667:
Where a name gives a salt, the structure may show the parent alone. This is one part of the list. Most values come without repeats; read them as rough.

Experiments:
Assay in all cases: reduction in cell viability relative to untreated/vehicle; higher = more growth inhibition
Conditions in all cases: 200 nM; 72 h
M229P = test system: M229P (parental melanoma line)
M229R = test system: M229R (matched melanoma line resistant to BRAF inhibitors)
M238P = test system: M238P (parental melanoma line)
M238R = test system: M238R (matched melanoma line resistant to BRAF inhibitors)
M249P = test system: M249P (parental melanoma line)
M249R = test system: M249R (matched melanoma line resistant to BRAF inhibitors)
UACC62P = test system: UACC62P (parental melanoma line)
UACC62R = test system: UACC62R (matched melanoma line resistant to BRAF inhibitors)

SMILES | reduction in cell viability (M229P) [%] | reduction in cell viability (M229R) [%] | reduction in cell viability (M238P) [%] | reduction in cell viability (M238R) [%] | reduction in cell viability (M249P) [%] | reduction in cell viability (M249R) [%] | reduction in cell viability (UACC62P) [%] | reduction in cell viability (UACC62R) [%]
COc1cc(CCc2cc(NC(=O)c3ccc(N4CC(C)NC(C)C4)cc3)n[nH]2)cc(OC)c1 (centres undefined) | < 0 | < 0 | < 0 | < 0 | < 0 | < 0 | < 0 | < 0
O=C(O)CCNc1cc(N2CCc3ccccc3CC2)nc(-c2ccccn2)n1 | < 0 | < 0 | < 0 | < 0 | < 0 | < 0 | < 0 | < 0
C[C@@H]1C[C@H]2[C@@H]3CCC4=CC(=O)C=C[C@]4(C)[C@@]3(Cl)[C@@H](O)C[C@]2(C)[C@@]1(OC(=O)c1ccco1)C(=O)CCl [Mometasone furoate] | < 0 | < 0 | < 0 | < 0 | < 0 | 5.36 | < 0 | < 0
Cc1c[nH]c(/C=C2\C(=O)Nc3ccccc32)c1CCC(=O)O | < 0 | < 0 | < 0 | < 0 | < 0 | < 0 | 13.8 | < 0
NC(CO)(CO)CCc1ccc(Sc2cccc(OCc3ccccc3)c2)cc1Cl | < 0 | < 0 | < 0 | < 0 | < 0 | < 0 | 4.7 | < 0
COc1ccc(CCC(=O)Nc2nc3ccc(Cl)cc3s2)cc1OC | < 0 | < 0 | < 0 | < 0 | < 0 | 0.29 | < 0 | < 0
Cn1cnc2c(F)c(Nc3ccc(Br)cc3Cl)c(C(=O)NOCCO)cc21 [Selumetinib] | 10.4 | < 0 | 32.1 | < 0 | 46.9 | < 0 | 43.3 | 19.6
CC(C)c1ccc2oc3nc(N)c(C(=O)O)cc3c(=O)c2c1 [Amlexanox] | < 0 | < 0 | < 0 | < 0 | 3.02 | 0.41 | < 0 | < 0
O=C(O)C1(C(=O)O)CCC1.[NH2-].[NH2-].[Pt+2] [Carboplatin] | < 0 | < 0 | < 0 | < 0 | 13.8 | < 0 | < 0 | < 0
NC(=O)NO [Hydroxyurea] | < 0 | < 0 | < 0 | < 0 | < 0 | < 0 | 13.6 | < 0
COc1ccc(Cc2ccc(NC(N)=O)cc2)cc1-c1cccc(Cl)c1 | < 0 | < 0 | < 0 | < 0 | < 0 | < 0 | < 0 | < 0
CC(=O)N1CCN(c2ccc(OCC3COC(Cn4ccnc4)(c4ccc(Cl)cc4Cl)O3)cc2)CC1 (centres undefined) [Ketoconazole] | < 0 | 0.56 | < 0 | < 0 | < 0 | < 0 | < 0 | < 0
CS(=O)(=O)c1ccc(C(=O)Nc2ccc(Cl)c(-c3ccccn3)c2)c(Cl)c1 [Vismodegib (GDC-0449)] | < 0 | < 0 | < 0 | < 0 | < 0 | < 0 | 10.9 | < 0
O=S(=O)(O)CCSSCCS(=O)(=O)O [Mesna disulfide] | < 0 | < 0 | < 0 | < 0 | < 0 | 4.73 | 3.19 | < 0
CN(C(=O)c1ccc(F)cc1C(F)(F)F)C1CCN(c2nnc(-c3ccnn3C)c3ccccc23)CC1 | < 0 | < 0 | < 0 | < 0 | < 0 | < 0 | < 0 | < 0
Nc1cc(N2CCCCC2)nc(N)[n+]1[O-] [Minoxidil] | 13.9 | < 0 | < 0 | < 0 | < 0 | < 0 | < 0 | < 0
C#Cc1cccc(Nc2ncnc3cc(OCCOC)c(OCCO)cc23)c1 | < 0 | < 0 | < 0 | < 0 | < 0 | < 0 | < 0 | < 0
CC1=C(/C=C/C(C)=C/C=C/C(C)=C\C(=O)O)C(C)(C)CCC1 [Isotretinoin] | < 0 | < 0 | < 0 | < 0 | < 0 | < 0 | < 0 | < 0
c1cc(-c2sc(-c3ccncc3)c(-c3ccncc3)c2-c2ccncc2)ccn1 | < 0 | < 0 | < 0 | < 0 | < 0 | 1.23 | < 0 | < 0
CCN(C(=O)c1c(O)c2c(Cl)cccc2n(C)c1=O)c1ccccc1 [Laquinimod] | < 0 | < 0 | < 0 | < 0 | < 0 | < 0 | < 0 | < 0
CC(C)(O)CC[C@@H](O)[C@](C)(O)[C@H]1CC[C@@]2(O)C3=CC(=O)[C@@H]4C[C@@H](O)[C@@H](O)C[C@]4(C)[C@H]3CC[C@]12C [20-hydroxyecdysone] | < 0 | < 0 | < 0 | < 0 | < 0 | < 0 | < 0 | < 0
CC(=O)OCC(=O)[C@@]1(O)CC[C@H]2[C@@H]3CCC4=CC(=O)C=C[C@]4(C)[C@H]3[C@@H](O)C[C@@]21C [Prednisolone acetate] | < 0 | < 0 | < 0 | < 0 | < 0 | < 0 | < 0 | < 0

SMILES | reduction in cell viability (M229P) [%] | reduction in cell viability (M229R) [%] | reduction in cell viability (M238P) [%] | reduction in cell viability (M238R) [%] | reduction in cell viability (M249P) [%] | reduction in cell viability (M249R) [%] | reduction in cell viability (UACC62P) [%] | reduction in cell viability (UACC62R) [%]
Cc1cc(C(=O)N2CCN(c3cccc(Cl)c3)CC2)n(-c2ccccc2)n1 | < 0 | 6.19 | 1.88 | < 0 | < 0 | 3.51 | 27.1 | 40.4
S=P(N1CC1)(N1CC1)N1CC1 | < 0 | < 0 | < 0 | < 0 | 0.1 | < 0 | 12.2 | < 0
Cc1n[nH]c(C)c1Cc1sc2c(c1C(=O)N1C[C@H](O)CO1)c(=O)n(C)c(=O)n2CC(C)C | 3.5 | 30.5 | 23.3 | < 0 | < 0 | < 0 | 20.9 | 26.1
CN(C)c1ccc2cc(C(=O)N[C@@H](CCCN=C(N)CCl)C(=O)NCc3ccccc3)ccc2c1 | < 0 | < 0 | < 0 | < 0 | < 0 | < 0 | 2.15 | < 0
CON(C)C(=O)N1N=C(c2cc(F)ccc2F)S[C@@]1(CCCN)c1ccccc1 | 15.5 | 28.5 | 84.5 | 69.4 | 38.3 | 24.9 | 40.5 | 77
CCCCc1oc2ccc(NS(C)(=O)=O)cc2c1C(=O)c1ccc(OCCCN(CCCC)CCCC)cc1 [Dronedarone] | < 0 | < 0 | < 0 | < 0 | < 0 | 4.16 | 0.69 | < 0
CN(C)C(=O)c1ccc(S(=O)(=O)c2ccc(NC(=O)[C@@](C)(O)C(F)(F)F)c(Cl)c2)cc1 | < 0 | < 0 | < 0 | < 0 | < 0 | < 0 | < 0 | < 0
O=C(NC1CC1)c1cccc(-c2ccc3c(NC(=O)C4CC4)n[nH]c3c2)c1 | < 0 | < 0 | < 0 | < 0 | < 0 | 0.82 | 14.1 | < 0
O=C(O)C(Cc1c[nH]c2ccccc12)N1C(=O)c2ccccc2C1=O (centres undefined) | < 0 | < 0 | < 0 | < 0 | < 0 | < 0 | 18.7 | 7.88
CCOC(=O)C1=C(C)NC(=S)NC1c1cccc(O)c1 (centres undefined) [Monastrol] | < 0 | < 0 | < 0 | < 0 | < 0 | < 0 | < 0 | < 0
CC[C@]1(O)C[C@H]2CN(CCc3c([nH]c4ccccc34)[C@@](C(=O)OC)(c3cc4c(cc3OC)N(C=O)[C@H]3[C@@](O)(C(=O)OC)[C@H](OC(C)=O)[C@]5(CC)C=CCN6CC[C@]43[C@@H]65)C2)C1 [Vincristine sulfate] | 35.9 | 51 | 65.6 | 70.8 | 60.2 | 54.5 | 50.2 | 84.9
COC1CCC(C(=O)c2ccc3nc4c(cc3c2)CCCO4)CC1 (centres undefined) | < 0 | < 0 | < 0 | < 0 | 5.45 | 6.58 | < 0 | < 0
C/C=C/C/C=C/CCC(=O)[C@H]1O[C@H]1C(N)=O [Cerulenin] | < 0 | < 0 | < 0 | < 0 | < 0 | < 0 | < 0 | < 0
CC1=C(C(=O)O)N2C(=O)[C@@H](NC(=O)[C@H](N)c3ccccc3)[C@H]2SC1 [Cephalexin] | < 0 | 5.6 | < 0 | < 0 | < 0 | < 0 | < 0 | < 0
O=C(CCCCCCC(=O)Nc1ccccc1)NO [Suberoylanilide hydroxamic acid] | < 0 | 14.9 | < 0 | < 0 | < 0 | < 0 | < 0 | < 0
CCCCC[C@H](O)/C=C/[C@H]1[C@H](O)CC(=O)[C@@H]1CCCCCCC(=O)O [Alprostadil] | < 0 | < 0 | < 0 | < 0 | < 0 | < 0 | < 0 | < 0
Cc1cnc(C(=O)NCCc2ccc(S(=O)(=O)NC(=O)NC3CCCCC3)cc2)cn1 [Glipizide] | < 0 | < 0 | < 0 | < 0 | < 0 | < 0 | 0.58 | < 0
Nc1nc(Cl)nc2c1ncn2[C@@H]1O[C@H](CO)[C@@H](O)[C@@H]1F [Clofarabine] | 7.83 | 37 | 83.4 | 58.7 | 23.4 | 51.7 | 26.1 | 84.3
COc1cc([C@@H]2c3cc4c(cc3[C@@H](O[C@@H]3O[C@@H]5CO[C@@H](c6cccs6)O[C@H]5[C@H](O)[C@H]3O)[C@H]3COC(=O)[C@H]23)OCO4)cc(OC)c1O [Teniposide] | < 0 | 6.14 | 51.5 | 25.4 | 33.9 | 45.7 | 24.4 | 48.9
CCOC(=O)O[C@]1(C(=O)OCCl)CC[C@H]2[C@@H]3CCC4=CC(=O)C=C[C@]4(C)[C@H]3[C@@H](O)C[C@@]21C [Loteprednol etabonate] | < 0 | < 0 | < 0 | < 0 | 16.1 | < 0 | 4.95 | < 0
CC(C)c1cc(C(C)C)c(CC(=O)NS(=O)(=O)Oc2c(C(C)C)cccc2C(C)C)c(C(C)C)c1 [Avasimibe] | < 0 | < 0 | < 0 | < 0 | < 0 | < 0 | < 0 | < 0

Gathered by group: the entries above containing an aryl methoxy group.
SMILES | reduction in cell viability (M229P) [%] | reduction in cell viability (M229R) [%] | reduction in cell viability (M238P) [%] | reduction in cell viability (M238R) [%] | reduction in cell viability (M249P) [%] | reduction in cell viability (M249R) [%] | reduction in cell viability (UACC62P) [%] | reduction in cell viability (UACC62R) [%]
COc1cc(CCc2cc(NC(=O)c3ccc(N4CC(C)NC(C)C4)cc3)n[nH]2)cc(OC)c1 (centres undefined) | < 0 | < 0 | < 0 | < 0 | < 0 | < 0 | < 0 | < 0
COc1ccc(CCC(=O)Nc2nc3ccc(Cl)cc3s2)cc1OC | < 0 | < 0 | < 0 | < 0 | < 0 | 0.29 | < 0 | < 0
COc1ccc(Cc2ccc(NC(N)=O)cc2)cc1-c1cccc(Cl)c1 | < 0 | < 0 | < 0 | < 0 | < 0 | < 0 | < 0 | < 0
CC[C@]1(O)C[C@H]2CN(CCc3c([nH]c4ccccc34)[C@@](C(=O)OC)(c3cc4c(cc3OC)N(C=O)[C@H]3[C@@](O)(C(=O)OC)[C@H](OC(C)=O)[C@]5(CC)C=CCN6CC[C@]43[C@@H]65)C2)C1 [Vincristine sulfate] | 35.9 | 51 | 65.6 | 70.8 | 60.2 | 54.5 | 50.2 | 84.9
COc1cc([C@@H]2c3cc4c(cc3[C@@H](O[C@@H]3O[C@@H]5CO[C@@H](c6cccs6)O[C@H]5[C@H](O)[C@H]3O)[C@H]3COC(=O)[C@H]23)OCO4)cc(OC)c1O [Teniposide] | < 0 | 6.14 | 51.5 | 25.4 | 33.9 | 45.7 | 24.4 | 48.9
